Results taken from publication PMC7052203.
No constants are given. Whether binding was seen depends on the method and setting. Binding seen in cells or lysates may run through a third protein. Some entries that bind do so weakly or less than the wild type.

Amino acid sequences for entries named in this document (tags omitted). A change or cut given only in a name is not applied to a line headed by its entry.
UniProt Q5S007: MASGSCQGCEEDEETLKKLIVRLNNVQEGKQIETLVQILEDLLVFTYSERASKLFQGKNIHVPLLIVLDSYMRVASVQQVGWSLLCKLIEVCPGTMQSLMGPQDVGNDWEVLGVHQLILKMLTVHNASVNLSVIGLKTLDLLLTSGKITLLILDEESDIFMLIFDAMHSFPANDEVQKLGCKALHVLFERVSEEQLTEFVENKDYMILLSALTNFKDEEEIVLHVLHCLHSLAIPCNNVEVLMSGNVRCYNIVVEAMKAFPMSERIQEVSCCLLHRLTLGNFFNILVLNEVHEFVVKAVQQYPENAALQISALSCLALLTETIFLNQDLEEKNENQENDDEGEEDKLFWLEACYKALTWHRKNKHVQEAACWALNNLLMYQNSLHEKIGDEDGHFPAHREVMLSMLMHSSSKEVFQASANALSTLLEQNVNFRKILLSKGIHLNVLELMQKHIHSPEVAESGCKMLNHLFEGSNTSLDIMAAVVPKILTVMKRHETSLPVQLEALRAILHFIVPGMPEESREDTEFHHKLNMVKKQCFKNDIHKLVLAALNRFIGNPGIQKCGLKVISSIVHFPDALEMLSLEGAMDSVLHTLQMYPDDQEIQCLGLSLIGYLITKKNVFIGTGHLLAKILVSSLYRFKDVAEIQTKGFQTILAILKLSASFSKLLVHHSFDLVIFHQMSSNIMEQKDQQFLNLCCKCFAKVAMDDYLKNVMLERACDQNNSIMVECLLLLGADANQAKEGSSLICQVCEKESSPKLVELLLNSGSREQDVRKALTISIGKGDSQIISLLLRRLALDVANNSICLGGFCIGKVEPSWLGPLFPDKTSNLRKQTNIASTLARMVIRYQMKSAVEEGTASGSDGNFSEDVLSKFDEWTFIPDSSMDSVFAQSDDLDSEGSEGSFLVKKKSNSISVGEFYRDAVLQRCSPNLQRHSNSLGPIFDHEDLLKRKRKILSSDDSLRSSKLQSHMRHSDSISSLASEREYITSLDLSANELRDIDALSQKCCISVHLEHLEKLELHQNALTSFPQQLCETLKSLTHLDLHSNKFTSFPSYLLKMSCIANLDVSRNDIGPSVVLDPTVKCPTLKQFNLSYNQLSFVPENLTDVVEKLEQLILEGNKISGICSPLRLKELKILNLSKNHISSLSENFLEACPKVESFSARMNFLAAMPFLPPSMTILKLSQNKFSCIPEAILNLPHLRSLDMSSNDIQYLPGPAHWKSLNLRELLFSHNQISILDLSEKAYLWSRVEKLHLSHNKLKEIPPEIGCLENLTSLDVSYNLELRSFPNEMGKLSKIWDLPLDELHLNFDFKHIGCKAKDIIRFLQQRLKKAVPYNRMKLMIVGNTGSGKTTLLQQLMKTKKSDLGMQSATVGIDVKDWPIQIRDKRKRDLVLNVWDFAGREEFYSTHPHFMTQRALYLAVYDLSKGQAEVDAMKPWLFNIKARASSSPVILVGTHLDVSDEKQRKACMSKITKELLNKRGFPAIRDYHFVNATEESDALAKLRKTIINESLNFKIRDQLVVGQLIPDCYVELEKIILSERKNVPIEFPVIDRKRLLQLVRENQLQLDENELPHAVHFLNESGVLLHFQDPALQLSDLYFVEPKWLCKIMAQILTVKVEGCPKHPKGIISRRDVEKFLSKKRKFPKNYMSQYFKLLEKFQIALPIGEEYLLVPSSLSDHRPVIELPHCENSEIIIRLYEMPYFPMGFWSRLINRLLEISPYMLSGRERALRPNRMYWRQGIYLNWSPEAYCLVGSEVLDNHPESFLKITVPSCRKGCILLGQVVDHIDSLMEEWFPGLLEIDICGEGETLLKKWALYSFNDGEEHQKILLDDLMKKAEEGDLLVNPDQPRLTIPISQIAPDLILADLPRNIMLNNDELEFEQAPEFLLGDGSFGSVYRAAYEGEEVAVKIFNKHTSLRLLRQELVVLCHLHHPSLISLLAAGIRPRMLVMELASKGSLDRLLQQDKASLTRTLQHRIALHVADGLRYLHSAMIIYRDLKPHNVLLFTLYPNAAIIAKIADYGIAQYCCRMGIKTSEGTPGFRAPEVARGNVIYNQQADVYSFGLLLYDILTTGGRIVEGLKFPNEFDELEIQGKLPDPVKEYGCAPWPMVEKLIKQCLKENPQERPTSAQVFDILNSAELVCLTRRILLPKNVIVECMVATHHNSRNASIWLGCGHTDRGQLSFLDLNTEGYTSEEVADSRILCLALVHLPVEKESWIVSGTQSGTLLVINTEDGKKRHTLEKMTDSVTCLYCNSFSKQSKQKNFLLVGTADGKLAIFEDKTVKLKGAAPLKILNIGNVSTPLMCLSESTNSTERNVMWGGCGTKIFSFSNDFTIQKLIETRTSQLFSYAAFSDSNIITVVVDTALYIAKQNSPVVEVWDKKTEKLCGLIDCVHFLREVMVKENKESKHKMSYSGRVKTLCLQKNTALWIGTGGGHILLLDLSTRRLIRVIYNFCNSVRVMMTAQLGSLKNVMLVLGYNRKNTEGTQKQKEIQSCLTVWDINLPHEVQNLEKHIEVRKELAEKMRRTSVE

How the values were obtained:
[1] = target: Strep-FLAG full-length LRRK2 E193K variant (human) (UniProt Q5S007); experiment: pull-down; Strep-FLAG LRRK2 constructs over-expressed in N2A cells, lysate (150 mM NaCl, 2 mM EDTA, 50 mM Tris-HCl, 1% NP-40, 0.25% sodium deoxycholate, pH 7.4) on Strep-Tactin Superflow resin 2 h at 4 °C, wash 300 mM NaCl, 50 mM Tris-HCl pH 7.4; co-isolated endogenous proteins detected by western blotting
[2] = target: Strep-FLAG full-length LRRK2 wild-type (human) (UniProt Q5S007); experiment: as above

For synapsin I (from UniProt O88935 1-706), the binding [1] was “binds” and the binding [2] was “binds”.
